The values that follow come from paper PMC8805557.

No constants are given. Whether binding was seen depends on the method and setting. Binding seen in cells or lysates may run through a third protein. For some assays here: A result given as binding can be weak or reduced; the word gives no strength. Where a sequence is shown, tags or fusion partners need not be part of it.

Test [1] deals with HA-ZFP961 (full-length ZFP961, ZFP961-WT) (mouse). Description: co-IP; as a1, with the PPARα agonist GW7647 (1 × 10^−6 M) present.
For test [2] the target is unchanged. Description: co-IP; HA-ZFP961 (or HA vector) co-transfected with the Flag-tagged partner; extracts made after 48 h in 100 mM NaCl, 50 mM Tris pH 7.5, 0.5% Triton X-100, 5% glycerol; incubated 2 h with anti-HA agarose beads; washed in 100 mM NaCl, 50 mM Tris pH 7.5, 0.1% NP-40, 3% glycerol; Western blot.
Test [3] addresses HA-ZFP961-Mut (KRAB domain deletion mutant of ZFP961) (mouse). The description is as above.

B1: Flag-PPARα (protein, UniProt P23204 1-468)
chain: MVDTESPICPLSPLEADDLESPLSEEFLQEMGNIQEISQSIGEESSGSFGFADYQYLGSCPGSEGSVITDTLSPASSPSSVSCPVIPASTDESPGSALNIECRICGDKASGYHYGVHACEGCKGFFRRTIRLKLVYDKCDRSCKIQKKNRNKCQYCRFHKCLSVGMSHNAIRFGRMPRSEKAKLKAEILTCEHDLKDSETADLKSLGKRIHEAYLKNFNMNKVKARVILAGKTSNNPPFVIHDMETLCMAEKTLVAKMVANGVEDKEAEVRFFHCCQCMSVETVTELTEFAKAIPGFANLDLNDQVTLLKYGVYEAIFTMLSSLMNKDGMLIAYGNGFITREFLKNLRKPFCDIMEPKFDFAMKFNALELDDSDISLFVAAIICCGDRPGLLNIGYIEKLQEGIVHVLKLHLQSNHPDDTFLFPKLLQKMVDLRQLVTEHAQLVQVIKKTESDAALHPLLQEIYRDMY
Regarding B1, the binding entry is recorded as “no binding (only with GW7647 (1 × 10^−6 M))” in test [1], “binds” in test [2] and “binds” in test [3].

B2: Flag-Hlx (protein, UniProt Q61670 1-476)
chain: MFAAGLAPFYASNFSLWSAAYCSSAGPGGCSFALDPAAVKKPSFCIADILHAGVGEPGPAAEGLVGASAALTAHLGSVHPHASFQAAARSPLRPTPVVAPSEVPAGFPQRLSPLSAAFHQHLPQQSPTQQQQPQQQPPPPPRAVSLQPPTSGTRVVPHHSGSAPAPSSKDLKFGIDRILSAEFDPKVKEGNTLRDLTSLLTGGRPAGVHLAGLQPSAGQFFASLDPISEASAILSPLSSNPRNSVQHQFQDTFPGPYAVLTKDTMPQTYKRKRSWSRAVFSNLQRKGLEKRFEIQKYVTKPDRKQLAAMLGLTDAQVKVWFQNRRMKWRHSKEAQAQKDKDKEAGEKPSGGVPAEGEREERSPSRSEGEAESESSDSESLDMAPSDTERTEGTERSLHQTTVIKASAAGALITASSSTSGSSFSFSSTSSLGSGNTHVGSASSLGGNCSELPSAHQPSVTSSPQSPEIAQAPLAGL
For B2, the binding result in test [2] is listed as “no binding”.

B3: Flag-PGC-1α (protein, UniProt O70343 1-797)
chain: MAWDMCSQDSVWSDIECAALVGEDQPLCPDLPELDLSELDVNDLDTDSFLGGLKWCSDQSEIISNQYNNEPANIFEKIDEENEANLLAVLTETLDSLPVDEDGLPSFDALTDGAVTTDNEASPSSMPDGTPPPQEAEEPSLLKKLLLAPANTQLSYNECSGLSTQNHAANHTHRIRTNPAIVKTENSWSNKAKSICQQQKPQRRPCSELLKYLTTNDDPPHTKPTENRNSSRDKCASKKKSHTQPQSQHAQAKPTTLSLPLTPESPNDPKGSPFENKTIERTLSVELSGTAGLTPPTTPPHKANQDNPFKASPKLKPSCKTVVPPPTKRARYSECSGTQGSHSTKKGPEQSELYAQLSKSSGLSRGHEERKTKRPSLRLFGDHDYCQSLNSKTDILINISQELQDSRQLDFKDASCDWQGHICSSTDSGQCYLRETLEASKQVSPCSTRKQLQDQEIRAELNKHFGHPCQAVFDDKSDKTSELRDGDFSNEQFSKLPVFINSGLAMDGLFDDSEDESDKLSYPWDGTQPYSLFDVSPSCSSFNSPCRDSVSPPKSLFSQRPQRMRSRSRSFSRHRSCSRSPYSRSRSRSPGSRSSSRSCYYYESSHYRHRTHRNSPLYVRSRSRSPYSRRPRYDSYEAYEHERLKRDEYRKEHEKRESERAKQRERQKQKAIEERRVIYVGKIRPDTTRTELRDRFEVFGEIEECTVNLRDDGDSYGFITYRYTCDAFAALENGYTLRRSNETDFELYFCGRKQFFKSNYADLDTNSDDFDPASTKSKYDSLDFDSLLKEAQRSLRR
On to B3, for which the binding entry in test [2] is reported as “no binding”.
